The target in assay [1] is human MCL-1 protein expressed in mouse cells (human) (UniProt Q07820). The assay is described as follows: co-IP.
Assay [2] concerns the target T1, mouse MCL-1 (mouse (endogenous in thymocytes)), P97287.
T1 chain: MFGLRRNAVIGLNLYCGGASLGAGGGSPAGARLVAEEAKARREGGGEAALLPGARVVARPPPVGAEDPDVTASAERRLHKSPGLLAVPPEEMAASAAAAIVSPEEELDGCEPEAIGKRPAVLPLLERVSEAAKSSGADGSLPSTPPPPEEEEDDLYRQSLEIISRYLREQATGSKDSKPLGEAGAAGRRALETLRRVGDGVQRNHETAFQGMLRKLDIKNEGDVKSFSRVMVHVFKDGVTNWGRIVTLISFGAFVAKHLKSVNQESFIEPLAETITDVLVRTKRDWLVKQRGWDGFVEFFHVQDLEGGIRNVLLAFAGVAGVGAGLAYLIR
The assay is described as follows: co-IP. To be noted: remark: other sources report otherwise.

By UniProt entry, the sequences of proteins in these tests, tags left out.
UniProt Q07820: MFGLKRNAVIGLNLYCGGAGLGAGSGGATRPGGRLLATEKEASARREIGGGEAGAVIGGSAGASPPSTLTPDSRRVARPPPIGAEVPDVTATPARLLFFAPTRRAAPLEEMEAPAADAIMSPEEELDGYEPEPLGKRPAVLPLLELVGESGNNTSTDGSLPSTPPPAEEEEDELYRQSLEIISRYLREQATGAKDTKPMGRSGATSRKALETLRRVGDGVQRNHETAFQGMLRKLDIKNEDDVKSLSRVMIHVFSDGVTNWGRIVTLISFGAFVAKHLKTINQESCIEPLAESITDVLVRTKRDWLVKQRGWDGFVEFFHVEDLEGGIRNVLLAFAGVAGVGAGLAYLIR

No constants are given. Whether binding was seen depends on the method and setting. In cells and extracts the contact can be indirect. Some results given as binding are weak or reduced against the parent protein; the word gives no strength.

The values below come from publication doi:10.1101/335430.

In the case of mouse BIM (from UniProt O54918 1-196), the binding entry in assay [1] is “binds”.

B1: mouse BIM, O54918 1-196 (protein)
chain: MAKQPSDVSSECDREGGQLQPAERPPQLRPGAPTSLQTEPQGNPDGEGDRCPHGSPQGPLAPPASPGPFATRSPLFIFVRRSSLLSRSSSGYFSFDTDRSPAPMSCDKSTQTPSPPCQAFNHYLSAMASIRQSQEEPEDLRPEIRIAQELRRIGDEFNETYTRRVFANDYREAEDHPQMVILQLLRFIFRLVWRRH
For B1, in assay [2], the binding result is “binds”.
